Laboratory results taken from PMC8274477.
No constants are given. Whether binding was seen depends on the method and setting. Some binding calls cover weakened binding; strength is not graded here.

Sequences of proteins named here, by UniProt entry; tags and fusion partners are left off. Residues count along the entry.
UniProt Q9NTU7, residues 28-201: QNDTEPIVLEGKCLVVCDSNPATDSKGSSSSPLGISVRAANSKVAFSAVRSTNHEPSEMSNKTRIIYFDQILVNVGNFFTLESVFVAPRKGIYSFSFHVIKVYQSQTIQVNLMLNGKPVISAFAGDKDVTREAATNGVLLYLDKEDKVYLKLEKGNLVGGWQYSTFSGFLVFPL
UniProt Q9NXA8, residues 37-310: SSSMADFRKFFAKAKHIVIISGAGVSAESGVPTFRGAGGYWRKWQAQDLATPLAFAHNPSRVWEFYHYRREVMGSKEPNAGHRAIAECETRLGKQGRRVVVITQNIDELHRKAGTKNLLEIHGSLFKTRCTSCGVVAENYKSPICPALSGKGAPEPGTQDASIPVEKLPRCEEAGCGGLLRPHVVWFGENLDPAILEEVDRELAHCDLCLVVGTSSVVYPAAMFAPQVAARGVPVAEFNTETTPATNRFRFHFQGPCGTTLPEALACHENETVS
UniProt Q5JSZ5: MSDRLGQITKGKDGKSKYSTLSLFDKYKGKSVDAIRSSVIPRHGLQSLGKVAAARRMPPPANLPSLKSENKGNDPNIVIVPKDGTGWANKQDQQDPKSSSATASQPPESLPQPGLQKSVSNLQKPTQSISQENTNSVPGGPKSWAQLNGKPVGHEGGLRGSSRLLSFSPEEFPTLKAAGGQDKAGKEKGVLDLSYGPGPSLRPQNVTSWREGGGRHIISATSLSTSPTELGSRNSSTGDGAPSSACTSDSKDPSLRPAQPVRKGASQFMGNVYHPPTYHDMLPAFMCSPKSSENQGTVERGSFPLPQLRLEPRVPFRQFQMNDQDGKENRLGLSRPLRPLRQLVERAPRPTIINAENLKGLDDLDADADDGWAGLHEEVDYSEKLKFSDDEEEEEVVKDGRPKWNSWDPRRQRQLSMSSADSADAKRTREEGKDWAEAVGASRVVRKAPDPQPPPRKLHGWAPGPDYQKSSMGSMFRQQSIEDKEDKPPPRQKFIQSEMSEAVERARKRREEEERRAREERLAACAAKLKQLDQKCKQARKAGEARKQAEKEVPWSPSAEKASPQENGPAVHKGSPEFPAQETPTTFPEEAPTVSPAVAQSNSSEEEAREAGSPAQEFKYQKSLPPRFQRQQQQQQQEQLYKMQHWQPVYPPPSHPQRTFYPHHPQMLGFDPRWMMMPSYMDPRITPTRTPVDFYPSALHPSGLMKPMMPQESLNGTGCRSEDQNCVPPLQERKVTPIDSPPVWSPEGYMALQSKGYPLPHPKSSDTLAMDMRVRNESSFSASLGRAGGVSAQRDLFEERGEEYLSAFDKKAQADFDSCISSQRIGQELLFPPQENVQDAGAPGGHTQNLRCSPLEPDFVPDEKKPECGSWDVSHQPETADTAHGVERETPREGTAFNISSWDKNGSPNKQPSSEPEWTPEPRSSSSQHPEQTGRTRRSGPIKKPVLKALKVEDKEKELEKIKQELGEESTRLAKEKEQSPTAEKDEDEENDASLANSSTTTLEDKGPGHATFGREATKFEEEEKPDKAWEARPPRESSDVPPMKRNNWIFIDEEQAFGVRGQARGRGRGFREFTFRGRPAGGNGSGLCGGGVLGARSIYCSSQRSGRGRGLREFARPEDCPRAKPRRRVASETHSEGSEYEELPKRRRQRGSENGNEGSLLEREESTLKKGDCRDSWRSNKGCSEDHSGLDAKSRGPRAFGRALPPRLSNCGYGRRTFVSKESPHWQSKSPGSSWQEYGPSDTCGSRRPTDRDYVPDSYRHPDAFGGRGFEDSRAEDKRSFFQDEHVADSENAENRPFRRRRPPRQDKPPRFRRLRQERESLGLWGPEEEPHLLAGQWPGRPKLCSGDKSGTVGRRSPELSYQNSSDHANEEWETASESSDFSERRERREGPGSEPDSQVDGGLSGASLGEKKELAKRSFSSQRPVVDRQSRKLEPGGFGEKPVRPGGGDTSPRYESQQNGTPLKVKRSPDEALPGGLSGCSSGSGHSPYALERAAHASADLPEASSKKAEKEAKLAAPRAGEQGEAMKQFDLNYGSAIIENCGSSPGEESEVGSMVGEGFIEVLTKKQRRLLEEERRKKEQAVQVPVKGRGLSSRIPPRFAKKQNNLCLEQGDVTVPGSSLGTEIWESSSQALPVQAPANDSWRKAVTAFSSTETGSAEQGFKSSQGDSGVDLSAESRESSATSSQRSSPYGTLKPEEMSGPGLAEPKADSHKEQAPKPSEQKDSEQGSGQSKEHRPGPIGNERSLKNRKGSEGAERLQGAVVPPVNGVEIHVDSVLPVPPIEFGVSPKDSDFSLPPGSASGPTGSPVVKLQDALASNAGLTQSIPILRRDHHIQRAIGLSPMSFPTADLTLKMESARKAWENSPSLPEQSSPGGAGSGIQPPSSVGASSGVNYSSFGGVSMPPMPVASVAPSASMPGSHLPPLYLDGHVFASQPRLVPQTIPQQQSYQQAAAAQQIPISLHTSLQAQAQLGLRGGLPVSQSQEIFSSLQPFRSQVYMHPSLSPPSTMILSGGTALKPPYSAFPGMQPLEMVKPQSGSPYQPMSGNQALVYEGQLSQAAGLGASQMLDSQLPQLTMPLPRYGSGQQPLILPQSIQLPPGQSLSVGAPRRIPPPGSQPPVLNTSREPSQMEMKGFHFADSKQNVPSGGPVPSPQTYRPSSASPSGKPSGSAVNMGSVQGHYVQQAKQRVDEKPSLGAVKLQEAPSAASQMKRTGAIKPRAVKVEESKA
UniProt P13051: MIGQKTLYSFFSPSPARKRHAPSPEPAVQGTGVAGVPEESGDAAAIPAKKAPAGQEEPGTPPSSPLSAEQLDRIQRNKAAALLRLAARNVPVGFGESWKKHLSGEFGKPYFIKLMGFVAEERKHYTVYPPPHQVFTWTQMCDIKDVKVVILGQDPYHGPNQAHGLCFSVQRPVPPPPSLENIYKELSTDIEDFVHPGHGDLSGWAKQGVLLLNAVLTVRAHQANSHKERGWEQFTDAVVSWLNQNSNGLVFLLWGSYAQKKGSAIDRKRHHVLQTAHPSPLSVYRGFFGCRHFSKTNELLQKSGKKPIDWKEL

How the values were obtained:
Test in all cases: peptide or protein array; HuProt human proteome microarray; 5 ug/5 ml biotin-labelled LUBAC or OTULIN in solution, 1 h at room temperature; Cy5-streptavidin, scanned at 635 nm; BSA as negative control; hits: Z-score >= 3 and I_(Mean_Ratio) >= 1.4; both purified
SORBS1 (human) = molecular target: T1, SORBS1 (human) (UniProt Q9BX66)
T1 sequence: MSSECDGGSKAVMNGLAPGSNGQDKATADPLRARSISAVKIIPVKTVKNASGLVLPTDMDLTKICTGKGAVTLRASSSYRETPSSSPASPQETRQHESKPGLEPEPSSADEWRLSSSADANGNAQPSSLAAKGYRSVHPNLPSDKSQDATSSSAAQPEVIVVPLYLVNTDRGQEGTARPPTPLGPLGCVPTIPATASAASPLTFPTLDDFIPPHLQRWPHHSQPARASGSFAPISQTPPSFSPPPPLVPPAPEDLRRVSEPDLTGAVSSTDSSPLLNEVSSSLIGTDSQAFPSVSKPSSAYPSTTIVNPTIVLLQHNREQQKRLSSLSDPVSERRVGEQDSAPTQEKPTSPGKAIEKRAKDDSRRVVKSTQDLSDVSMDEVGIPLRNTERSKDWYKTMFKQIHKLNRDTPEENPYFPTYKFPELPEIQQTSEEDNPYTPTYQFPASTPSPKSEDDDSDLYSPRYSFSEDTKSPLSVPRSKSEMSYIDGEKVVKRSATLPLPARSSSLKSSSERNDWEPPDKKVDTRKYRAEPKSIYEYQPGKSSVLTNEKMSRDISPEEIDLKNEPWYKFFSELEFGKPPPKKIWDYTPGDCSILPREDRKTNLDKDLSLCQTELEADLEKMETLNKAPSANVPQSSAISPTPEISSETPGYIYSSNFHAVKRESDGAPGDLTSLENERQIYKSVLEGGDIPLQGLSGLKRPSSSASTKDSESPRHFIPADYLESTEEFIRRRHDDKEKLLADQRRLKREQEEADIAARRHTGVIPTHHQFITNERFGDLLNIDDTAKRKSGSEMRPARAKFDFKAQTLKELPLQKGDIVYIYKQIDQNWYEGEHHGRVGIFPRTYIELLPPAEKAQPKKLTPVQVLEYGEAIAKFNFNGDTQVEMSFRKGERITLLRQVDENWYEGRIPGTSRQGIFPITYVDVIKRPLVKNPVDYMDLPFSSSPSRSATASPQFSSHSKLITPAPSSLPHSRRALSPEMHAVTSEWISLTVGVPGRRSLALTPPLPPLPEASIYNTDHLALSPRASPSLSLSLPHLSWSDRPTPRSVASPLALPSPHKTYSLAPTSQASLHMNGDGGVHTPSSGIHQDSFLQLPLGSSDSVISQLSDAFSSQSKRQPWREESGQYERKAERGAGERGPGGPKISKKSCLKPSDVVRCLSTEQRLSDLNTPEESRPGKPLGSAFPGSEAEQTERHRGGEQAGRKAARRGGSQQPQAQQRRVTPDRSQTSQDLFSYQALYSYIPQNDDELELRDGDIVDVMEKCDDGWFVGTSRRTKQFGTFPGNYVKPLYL

CBLN4 (human) = CBLN4 (human) (UniProt Q9NTU7)
[1] = molecular target: SIRT5 (spot on the microarray) (human) (UniProt Q9NXA8)
PRRC2B (human) = PRRC2B (human) (UniProt Q5JSZ5)
UNG (human) = UNG (human) (UniProt P13051)
LONP1 (human) = molecular target: T2, LONP1 (human) (UniProt P36776)
T2 sequence: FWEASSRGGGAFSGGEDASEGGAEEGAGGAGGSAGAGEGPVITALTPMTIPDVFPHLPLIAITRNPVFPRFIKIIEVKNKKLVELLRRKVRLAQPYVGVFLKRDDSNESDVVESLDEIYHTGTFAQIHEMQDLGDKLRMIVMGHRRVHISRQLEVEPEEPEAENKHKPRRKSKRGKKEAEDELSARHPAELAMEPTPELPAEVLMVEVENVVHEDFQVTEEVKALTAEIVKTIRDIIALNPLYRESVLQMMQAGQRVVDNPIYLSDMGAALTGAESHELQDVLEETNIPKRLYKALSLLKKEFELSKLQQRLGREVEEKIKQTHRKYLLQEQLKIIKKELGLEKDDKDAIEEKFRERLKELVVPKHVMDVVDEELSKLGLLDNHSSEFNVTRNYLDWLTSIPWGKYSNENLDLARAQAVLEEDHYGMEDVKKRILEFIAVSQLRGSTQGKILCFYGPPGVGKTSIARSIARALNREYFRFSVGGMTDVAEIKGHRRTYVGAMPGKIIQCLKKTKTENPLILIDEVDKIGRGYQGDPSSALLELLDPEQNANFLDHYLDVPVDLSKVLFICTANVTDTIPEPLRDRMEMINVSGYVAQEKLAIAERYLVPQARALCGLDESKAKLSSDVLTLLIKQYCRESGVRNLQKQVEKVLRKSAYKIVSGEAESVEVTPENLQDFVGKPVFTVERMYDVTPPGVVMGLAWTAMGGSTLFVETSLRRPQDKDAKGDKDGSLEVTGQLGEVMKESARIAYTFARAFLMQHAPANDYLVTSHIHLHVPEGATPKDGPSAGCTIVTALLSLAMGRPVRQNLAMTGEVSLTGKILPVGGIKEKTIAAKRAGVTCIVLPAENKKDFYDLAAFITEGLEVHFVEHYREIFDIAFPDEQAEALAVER

Measured: binding

OTULIN (OTU deubiquitinase with linear linkage specificity, FAM105B), His-tagged, biotin-labelled (from UniProt Q96BN8 1-352) (enzyme)
binds: all assays above

linear ubiquitin chain assembly complex (LUBAC), purified as HIS-tagged HOIP with the subunit HOIL-1, biotin-labelled (from UniProt Q96EP0 1-1072; Q9BYM8 1-510)
binds: all assays above
